Here are results for 1 molecule from paper PMC6836474.

The chains behind the UniProt entries cited, without tags or fusion partners. Residues count along the entry.
UniProt P78504, residues 34-1218: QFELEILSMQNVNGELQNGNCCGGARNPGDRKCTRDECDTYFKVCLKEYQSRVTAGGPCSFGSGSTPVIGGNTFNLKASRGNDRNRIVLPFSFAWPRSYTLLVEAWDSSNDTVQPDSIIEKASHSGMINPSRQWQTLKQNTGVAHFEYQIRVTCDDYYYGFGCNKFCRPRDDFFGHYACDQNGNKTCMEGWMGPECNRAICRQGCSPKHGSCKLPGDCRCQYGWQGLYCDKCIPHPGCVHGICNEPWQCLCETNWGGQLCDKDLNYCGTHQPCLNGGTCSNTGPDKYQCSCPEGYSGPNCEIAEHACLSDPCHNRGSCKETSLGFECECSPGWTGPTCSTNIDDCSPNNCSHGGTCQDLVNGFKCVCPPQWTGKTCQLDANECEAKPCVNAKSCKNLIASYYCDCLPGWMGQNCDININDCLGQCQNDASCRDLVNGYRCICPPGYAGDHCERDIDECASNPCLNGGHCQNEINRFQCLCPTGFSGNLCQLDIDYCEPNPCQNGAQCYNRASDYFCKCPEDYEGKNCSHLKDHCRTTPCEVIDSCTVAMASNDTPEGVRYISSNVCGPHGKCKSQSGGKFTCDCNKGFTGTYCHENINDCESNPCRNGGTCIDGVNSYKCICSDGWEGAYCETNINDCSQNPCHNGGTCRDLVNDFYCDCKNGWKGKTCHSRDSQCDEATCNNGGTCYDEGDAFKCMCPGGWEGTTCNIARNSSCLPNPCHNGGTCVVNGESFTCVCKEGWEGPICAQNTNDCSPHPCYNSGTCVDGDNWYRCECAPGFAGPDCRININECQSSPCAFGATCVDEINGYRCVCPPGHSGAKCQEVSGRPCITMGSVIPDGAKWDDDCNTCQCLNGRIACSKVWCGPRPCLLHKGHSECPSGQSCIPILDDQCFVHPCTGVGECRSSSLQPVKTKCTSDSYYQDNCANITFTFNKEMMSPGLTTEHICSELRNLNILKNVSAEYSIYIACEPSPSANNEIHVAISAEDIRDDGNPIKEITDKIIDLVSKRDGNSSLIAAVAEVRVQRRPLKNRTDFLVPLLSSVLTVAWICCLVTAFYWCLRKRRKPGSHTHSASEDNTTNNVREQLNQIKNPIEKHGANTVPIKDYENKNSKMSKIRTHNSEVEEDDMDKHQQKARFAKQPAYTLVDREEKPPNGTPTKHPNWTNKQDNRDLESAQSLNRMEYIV
UniProt P46531, residues 19-2555: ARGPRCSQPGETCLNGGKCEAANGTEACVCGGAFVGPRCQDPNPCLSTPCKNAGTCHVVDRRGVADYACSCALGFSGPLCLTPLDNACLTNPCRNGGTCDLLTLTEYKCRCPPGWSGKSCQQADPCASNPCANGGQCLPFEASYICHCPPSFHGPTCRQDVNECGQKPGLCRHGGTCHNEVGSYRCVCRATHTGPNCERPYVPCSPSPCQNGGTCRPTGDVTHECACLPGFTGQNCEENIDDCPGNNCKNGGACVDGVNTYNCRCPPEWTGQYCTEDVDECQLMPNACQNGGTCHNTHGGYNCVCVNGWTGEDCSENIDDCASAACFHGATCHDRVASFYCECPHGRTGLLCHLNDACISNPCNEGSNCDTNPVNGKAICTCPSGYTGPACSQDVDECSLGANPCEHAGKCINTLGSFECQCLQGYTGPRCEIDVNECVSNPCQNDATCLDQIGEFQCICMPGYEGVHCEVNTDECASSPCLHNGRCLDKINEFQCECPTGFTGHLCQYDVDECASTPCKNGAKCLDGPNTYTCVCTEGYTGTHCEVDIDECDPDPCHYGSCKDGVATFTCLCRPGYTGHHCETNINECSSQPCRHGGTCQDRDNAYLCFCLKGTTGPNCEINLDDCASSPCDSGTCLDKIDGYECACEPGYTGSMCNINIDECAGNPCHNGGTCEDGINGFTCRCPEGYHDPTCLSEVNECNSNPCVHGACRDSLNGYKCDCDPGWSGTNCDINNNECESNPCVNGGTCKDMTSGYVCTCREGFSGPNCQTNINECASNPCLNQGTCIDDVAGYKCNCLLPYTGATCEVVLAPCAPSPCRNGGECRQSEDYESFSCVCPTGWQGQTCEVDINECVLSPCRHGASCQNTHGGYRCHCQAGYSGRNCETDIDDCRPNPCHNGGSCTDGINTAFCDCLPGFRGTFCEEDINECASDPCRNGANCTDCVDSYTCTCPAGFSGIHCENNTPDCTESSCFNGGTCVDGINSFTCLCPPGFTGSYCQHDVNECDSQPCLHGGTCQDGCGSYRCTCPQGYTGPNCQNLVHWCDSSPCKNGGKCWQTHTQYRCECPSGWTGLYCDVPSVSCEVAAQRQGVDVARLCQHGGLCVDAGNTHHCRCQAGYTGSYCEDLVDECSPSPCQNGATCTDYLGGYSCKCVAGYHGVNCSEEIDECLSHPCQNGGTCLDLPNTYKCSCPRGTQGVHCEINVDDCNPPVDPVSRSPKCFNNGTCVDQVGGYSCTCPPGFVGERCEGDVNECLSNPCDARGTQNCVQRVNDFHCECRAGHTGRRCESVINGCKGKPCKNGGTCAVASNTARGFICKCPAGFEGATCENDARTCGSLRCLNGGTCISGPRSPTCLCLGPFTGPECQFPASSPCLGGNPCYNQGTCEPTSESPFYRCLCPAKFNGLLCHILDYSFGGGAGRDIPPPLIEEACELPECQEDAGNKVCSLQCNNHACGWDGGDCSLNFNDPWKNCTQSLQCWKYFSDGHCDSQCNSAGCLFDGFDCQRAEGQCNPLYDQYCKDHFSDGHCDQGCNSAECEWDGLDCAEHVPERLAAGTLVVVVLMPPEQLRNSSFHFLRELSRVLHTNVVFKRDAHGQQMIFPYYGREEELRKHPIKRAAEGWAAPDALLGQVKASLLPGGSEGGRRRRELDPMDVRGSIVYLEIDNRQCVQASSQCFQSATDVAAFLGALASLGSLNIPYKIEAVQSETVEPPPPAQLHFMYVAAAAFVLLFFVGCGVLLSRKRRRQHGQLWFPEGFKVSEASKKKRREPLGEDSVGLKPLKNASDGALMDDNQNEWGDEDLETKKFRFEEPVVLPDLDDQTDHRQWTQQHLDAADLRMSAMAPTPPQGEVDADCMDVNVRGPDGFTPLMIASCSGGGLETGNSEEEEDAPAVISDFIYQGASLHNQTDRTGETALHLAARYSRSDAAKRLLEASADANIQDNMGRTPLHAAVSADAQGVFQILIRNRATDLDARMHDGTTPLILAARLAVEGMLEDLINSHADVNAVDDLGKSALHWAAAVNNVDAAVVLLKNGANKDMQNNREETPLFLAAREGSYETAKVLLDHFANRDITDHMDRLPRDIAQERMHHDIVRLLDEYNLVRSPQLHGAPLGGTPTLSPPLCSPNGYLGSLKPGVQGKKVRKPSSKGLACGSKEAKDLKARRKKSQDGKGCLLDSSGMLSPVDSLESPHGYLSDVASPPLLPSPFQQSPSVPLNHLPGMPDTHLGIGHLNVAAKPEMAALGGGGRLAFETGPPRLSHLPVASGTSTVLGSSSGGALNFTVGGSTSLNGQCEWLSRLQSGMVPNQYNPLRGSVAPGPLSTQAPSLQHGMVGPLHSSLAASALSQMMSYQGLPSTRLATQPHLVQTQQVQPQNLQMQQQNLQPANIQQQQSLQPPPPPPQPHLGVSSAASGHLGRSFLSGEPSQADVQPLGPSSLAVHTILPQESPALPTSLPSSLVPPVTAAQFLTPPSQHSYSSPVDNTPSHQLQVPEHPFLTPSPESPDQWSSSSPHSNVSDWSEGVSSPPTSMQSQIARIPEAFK

These are yes or no findings as the source states them, for the method shown. In cells and extracts the contact can be indirect. Some entries that bind do so weakly or less than the wild type.

Test [1] concerns the target JAG1 (UniProt P78504). In words: co-IP; cells in 10-cm dishes transfected with 10 μg corresponding plasmids, harvested in PBS containing 1% NP40; Western blot; which partner was precipitated is not stated.
The target in test [2] is Notch1 (UniProt P46531). The description is as above.

B1: Aspartate β-hydroxylase (ASPH) (enzyme, UniProt Q12797 1-758)
chain: MAQRKNAKSSGNSSSSGSGSGSTSAGSSSPGARRETKHGGHKNGRKGGLSGTSFFTWFMVIALLGVWTSVAVVWFDLVDYEEVLGKLGIYDADGDGDFDVDDAKVLLGLKERSTSEPAVPPEEAEPHTEPEEQVPVEAEPQNIEDEAKEQIQSLLHEMVHAEHVEGEDLQQEDGPTGEPQQEDDEFLMATDVDDRFETLEPEVSHEETEHSYHVEETVSQDCNQDMEEMMSEQENPDSSEPVVEDERLHHDTDDVTYQVYEEQAVYEPLENEGIEITEVTAPPEDNPVEDSQVIVEEVSIFPVEEQQEVPPETNRKTDDPEQKAKVKKKKPKLLNKFDKTIKAELDAAEKLRKRGKIEEAVNAFKELVRKYPQSPRARYGKAQCEDDLAEKRRSNEVLRGAIETYQEVASLPDVPADLLKLSLKRRSDRQQFLGHMRGSLLTLQRLVQLFPNDTSLKNDLGVGYLLIGDNDNAKKVYEEVLSVTPNDGFAKVHYGFILKAQNKIAESIPYLKEGIESGDPGTDDGRFYFHLGDAMQRVGNKEAYKWYELGHKRGHFASVWQRSLYNVNGLKAQPWWTPKETGYTELVKSLERNWKLIRDEGLAVMDKAKGLFLPEDENLREKGDWSQFTLWQQGRRNENACKGAPKTCTLLEKFPETTGCRRGQIKYSIMHPGTHVWPHTGPTNCRLRMHLGLVIPKEGCKIRCANETKTWEEGKVLIFDDSFEHEVWQDASSFRLIFIVDVWHPELTPQQRRSLPAI
In the case of B1, the binding result in test [1] and in test [2] was “binds” each time.
